39 targets from the supplement of paper PMC12067093, “Discovery and optimisation of a covalent ligand for TRIM25 and its application to targeted protein ubiquitination” (Chemical Science, 2025) can be followed below.

By UniProt entry, the sequences of proteins in these tests, tags left out. Where a name states a change or a piece, a line headed by the entry shows the natural chain unless it says otherwise.
UniProt P11717, whole entry, looked up: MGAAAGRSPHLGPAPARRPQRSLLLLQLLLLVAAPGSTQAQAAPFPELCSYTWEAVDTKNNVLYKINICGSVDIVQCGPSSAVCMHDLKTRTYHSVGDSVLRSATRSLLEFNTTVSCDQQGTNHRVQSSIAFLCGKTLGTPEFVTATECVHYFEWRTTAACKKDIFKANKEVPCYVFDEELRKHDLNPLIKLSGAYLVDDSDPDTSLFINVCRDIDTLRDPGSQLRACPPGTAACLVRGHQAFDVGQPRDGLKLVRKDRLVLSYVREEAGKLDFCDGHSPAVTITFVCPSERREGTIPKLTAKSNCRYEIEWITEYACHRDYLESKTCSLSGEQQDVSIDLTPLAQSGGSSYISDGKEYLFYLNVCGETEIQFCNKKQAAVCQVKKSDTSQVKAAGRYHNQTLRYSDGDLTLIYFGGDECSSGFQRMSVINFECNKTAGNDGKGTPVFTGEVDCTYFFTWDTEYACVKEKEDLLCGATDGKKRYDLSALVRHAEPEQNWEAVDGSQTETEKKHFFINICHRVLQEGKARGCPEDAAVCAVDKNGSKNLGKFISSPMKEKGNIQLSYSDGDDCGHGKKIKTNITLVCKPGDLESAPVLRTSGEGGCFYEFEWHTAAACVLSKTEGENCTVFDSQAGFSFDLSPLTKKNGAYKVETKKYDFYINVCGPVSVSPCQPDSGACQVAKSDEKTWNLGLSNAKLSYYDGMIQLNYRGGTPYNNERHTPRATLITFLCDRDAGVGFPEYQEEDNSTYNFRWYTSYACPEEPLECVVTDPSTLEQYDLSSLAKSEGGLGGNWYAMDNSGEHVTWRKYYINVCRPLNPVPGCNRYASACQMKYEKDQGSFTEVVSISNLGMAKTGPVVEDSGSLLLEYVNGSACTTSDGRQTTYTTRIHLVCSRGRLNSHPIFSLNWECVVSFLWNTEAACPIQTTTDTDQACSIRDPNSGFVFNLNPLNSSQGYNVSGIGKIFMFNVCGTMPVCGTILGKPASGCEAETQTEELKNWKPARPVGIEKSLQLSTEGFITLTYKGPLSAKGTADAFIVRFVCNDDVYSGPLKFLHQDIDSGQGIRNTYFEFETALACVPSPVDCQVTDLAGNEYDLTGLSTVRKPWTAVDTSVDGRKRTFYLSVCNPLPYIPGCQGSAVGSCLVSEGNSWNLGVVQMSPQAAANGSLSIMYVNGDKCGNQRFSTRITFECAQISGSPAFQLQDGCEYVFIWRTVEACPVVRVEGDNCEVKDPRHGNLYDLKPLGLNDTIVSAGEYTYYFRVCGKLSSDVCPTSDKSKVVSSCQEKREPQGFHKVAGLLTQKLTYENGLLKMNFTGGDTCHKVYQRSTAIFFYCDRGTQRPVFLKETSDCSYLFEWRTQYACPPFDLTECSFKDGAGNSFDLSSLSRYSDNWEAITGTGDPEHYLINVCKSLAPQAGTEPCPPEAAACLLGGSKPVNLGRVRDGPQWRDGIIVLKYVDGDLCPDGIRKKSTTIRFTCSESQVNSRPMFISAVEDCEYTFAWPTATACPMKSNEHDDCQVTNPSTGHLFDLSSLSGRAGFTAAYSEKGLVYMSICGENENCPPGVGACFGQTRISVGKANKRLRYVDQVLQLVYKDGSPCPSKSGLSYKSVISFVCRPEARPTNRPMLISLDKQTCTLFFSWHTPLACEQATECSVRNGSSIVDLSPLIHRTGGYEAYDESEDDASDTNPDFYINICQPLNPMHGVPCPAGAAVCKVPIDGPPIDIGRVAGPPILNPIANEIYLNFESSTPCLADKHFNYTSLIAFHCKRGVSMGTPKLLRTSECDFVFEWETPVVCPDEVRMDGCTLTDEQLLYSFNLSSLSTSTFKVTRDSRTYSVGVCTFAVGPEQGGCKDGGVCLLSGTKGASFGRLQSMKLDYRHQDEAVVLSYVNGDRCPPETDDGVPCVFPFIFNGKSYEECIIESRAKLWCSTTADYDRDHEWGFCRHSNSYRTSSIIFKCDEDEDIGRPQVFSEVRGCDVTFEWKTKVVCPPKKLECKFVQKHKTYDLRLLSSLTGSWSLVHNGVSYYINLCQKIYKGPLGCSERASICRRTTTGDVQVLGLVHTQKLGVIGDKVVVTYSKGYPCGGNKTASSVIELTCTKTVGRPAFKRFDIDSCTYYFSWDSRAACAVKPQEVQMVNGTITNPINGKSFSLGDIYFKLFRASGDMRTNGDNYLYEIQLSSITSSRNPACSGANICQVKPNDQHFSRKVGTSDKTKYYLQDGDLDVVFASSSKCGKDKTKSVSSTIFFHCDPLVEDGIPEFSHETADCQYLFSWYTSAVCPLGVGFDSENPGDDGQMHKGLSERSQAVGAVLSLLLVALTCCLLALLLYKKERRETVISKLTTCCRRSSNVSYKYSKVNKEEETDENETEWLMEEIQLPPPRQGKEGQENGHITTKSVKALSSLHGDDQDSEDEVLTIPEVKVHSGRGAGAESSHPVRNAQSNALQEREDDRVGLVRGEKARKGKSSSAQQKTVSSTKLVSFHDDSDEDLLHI
UniProt O14732: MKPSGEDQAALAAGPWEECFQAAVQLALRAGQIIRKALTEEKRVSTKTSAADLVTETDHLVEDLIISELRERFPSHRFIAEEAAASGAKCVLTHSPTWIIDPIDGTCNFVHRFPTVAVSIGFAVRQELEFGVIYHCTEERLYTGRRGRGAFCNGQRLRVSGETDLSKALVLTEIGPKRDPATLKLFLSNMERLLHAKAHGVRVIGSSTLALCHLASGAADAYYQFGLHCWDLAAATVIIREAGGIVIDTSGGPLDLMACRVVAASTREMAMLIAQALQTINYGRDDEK
UniProt P08887: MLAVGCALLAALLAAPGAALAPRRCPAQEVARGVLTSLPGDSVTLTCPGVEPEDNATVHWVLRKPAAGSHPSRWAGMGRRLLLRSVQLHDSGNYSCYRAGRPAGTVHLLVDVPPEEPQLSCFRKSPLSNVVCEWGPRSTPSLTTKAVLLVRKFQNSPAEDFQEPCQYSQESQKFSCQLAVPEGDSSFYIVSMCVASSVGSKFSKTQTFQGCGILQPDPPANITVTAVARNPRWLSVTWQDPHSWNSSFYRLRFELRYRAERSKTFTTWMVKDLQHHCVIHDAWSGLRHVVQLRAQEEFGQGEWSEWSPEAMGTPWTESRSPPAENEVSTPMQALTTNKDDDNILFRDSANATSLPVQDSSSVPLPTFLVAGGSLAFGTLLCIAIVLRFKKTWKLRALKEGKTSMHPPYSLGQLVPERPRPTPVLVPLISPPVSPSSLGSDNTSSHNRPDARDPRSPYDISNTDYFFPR
UniProt P29218: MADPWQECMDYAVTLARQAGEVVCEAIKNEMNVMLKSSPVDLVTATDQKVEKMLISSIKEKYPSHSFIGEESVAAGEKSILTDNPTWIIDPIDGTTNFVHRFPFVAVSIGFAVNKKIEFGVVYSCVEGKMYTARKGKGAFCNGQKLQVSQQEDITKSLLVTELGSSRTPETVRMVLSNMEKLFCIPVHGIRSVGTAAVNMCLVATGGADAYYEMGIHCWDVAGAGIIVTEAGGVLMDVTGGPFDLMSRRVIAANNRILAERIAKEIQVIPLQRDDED
UniProt Q9Y6K9, whole entry, looked up: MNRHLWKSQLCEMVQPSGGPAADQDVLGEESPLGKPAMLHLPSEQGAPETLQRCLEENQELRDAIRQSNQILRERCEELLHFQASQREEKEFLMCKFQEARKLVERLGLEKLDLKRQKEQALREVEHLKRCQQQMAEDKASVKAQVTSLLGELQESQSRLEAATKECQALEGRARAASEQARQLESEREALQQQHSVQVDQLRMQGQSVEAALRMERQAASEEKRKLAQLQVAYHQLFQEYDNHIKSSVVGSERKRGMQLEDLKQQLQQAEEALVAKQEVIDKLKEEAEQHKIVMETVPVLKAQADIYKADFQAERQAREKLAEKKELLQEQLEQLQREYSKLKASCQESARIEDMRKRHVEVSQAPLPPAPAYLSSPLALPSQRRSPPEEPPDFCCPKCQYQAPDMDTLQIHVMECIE
UniProt O60921: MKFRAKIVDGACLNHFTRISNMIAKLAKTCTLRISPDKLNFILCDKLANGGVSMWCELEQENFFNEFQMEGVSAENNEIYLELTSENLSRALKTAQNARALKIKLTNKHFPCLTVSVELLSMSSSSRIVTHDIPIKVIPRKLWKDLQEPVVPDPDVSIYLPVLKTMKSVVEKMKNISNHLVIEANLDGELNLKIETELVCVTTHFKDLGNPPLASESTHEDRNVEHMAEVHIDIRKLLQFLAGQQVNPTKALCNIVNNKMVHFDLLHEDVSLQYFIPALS
UniProt P50213: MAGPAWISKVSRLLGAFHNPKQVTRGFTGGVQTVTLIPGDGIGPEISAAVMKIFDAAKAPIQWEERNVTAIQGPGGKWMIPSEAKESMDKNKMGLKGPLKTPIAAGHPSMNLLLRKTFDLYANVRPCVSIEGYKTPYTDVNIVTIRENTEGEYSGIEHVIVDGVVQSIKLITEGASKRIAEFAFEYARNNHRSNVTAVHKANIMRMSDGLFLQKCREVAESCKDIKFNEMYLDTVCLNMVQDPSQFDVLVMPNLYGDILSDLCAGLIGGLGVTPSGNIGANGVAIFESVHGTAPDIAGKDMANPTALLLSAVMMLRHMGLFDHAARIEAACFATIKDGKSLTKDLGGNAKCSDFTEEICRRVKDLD
UniProt Q27J81, whole entry, looked up: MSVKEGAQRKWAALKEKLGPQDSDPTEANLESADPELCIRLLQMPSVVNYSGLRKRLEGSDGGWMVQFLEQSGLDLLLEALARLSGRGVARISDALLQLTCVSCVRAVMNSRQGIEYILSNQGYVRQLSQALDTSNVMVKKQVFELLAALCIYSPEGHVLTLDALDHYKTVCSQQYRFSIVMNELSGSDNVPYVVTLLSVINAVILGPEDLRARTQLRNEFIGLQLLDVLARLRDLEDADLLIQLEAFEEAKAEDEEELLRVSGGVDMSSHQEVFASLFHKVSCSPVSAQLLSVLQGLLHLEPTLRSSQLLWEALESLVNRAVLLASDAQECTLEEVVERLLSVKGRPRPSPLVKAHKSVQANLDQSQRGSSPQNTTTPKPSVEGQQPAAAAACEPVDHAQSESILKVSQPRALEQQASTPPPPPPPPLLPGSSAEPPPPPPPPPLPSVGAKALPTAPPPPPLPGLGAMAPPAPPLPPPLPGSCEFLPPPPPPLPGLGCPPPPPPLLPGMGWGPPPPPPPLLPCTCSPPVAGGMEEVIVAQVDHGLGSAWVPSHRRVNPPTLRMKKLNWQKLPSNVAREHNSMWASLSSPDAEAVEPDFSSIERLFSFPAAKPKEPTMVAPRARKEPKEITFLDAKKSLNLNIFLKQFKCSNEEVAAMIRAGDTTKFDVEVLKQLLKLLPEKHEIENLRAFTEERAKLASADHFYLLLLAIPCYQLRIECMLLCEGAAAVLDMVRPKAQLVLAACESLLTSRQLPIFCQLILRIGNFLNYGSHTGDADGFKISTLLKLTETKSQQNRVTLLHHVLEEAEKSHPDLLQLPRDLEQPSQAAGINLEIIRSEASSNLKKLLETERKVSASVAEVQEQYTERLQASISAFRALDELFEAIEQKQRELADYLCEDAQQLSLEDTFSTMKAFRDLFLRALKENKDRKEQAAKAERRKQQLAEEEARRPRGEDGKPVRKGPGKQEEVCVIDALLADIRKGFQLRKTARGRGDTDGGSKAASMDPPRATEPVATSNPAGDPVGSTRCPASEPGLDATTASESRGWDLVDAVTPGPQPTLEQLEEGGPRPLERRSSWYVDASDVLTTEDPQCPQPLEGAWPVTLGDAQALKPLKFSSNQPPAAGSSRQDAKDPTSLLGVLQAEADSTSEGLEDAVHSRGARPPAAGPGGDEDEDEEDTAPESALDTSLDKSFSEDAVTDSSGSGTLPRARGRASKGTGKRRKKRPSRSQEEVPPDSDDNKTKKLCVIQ
UniProt Q16270: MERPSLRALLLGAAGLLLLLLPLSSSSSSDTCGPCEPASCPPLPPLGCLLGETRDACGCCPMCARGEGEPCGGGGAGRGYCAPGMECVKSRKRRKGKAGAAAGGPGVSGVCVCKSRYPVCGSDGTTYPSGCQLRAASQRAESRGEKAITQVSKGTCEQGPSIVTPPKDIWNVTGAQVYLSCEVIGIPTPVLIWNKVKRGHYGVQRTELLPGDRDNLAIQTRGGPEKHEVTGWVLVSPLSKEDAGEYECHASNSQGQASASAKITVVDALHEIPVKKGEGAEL
UniProt Q9H160: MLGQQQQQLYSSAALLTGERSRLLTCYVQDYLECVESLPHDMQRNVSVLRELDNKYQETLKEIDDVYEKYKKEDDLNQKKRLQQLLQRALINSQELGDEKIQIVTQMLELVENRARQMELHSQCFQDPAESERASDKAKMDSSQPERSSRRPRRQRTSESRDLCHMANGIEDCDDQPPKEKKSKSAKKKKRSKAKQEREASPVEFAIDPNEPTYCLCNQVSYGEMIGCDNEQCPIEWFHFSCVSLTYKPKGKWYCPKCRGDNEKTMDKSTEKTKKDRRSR

Compound in the experiment: CC1Cc2ccccc2N1C(=O)C1CCCN(C1)C(=O)CCl (mixture of isomers) [TRIM25 ligand 11 (diastereomer mixture)]
The experiment can be described thus: probe-labelled cysteine peptide fold change vs DMSO (competition) (log2 fold change); higher = less target engagement (more negative = stronger competition). The settings on record: THP-1, incubation time: 4 h.

Some of the results follow.
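Further: competitive chemoproteomic profiling in live THP-1 cells with an iodoacetamide desthiobiotin (IA-DTB) probe, comparing probe-labelled peptide intensities in compound-treated cells against DMSO-treated controls.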

With “HUWE1_Q7Z6Z7_2106_EDCSVLAFVLDHLLPHTQNAEDK (UniProt Q7Z6Z7)”, the “probe-labelled cysteine peptide fold change” value was -0.0582 (10 µM) and 0.269 (50 µM).
On to “IGF2R_P11717_275_LDFCDGHSPAVTITFVCPSER (UniProt P11717)”, for which the “probe-labelled cysteine peptide fold change” value was 0.0215 (10 µM) and 0.173 (50 µM).
For the target “IMPA2_O14732_90+107_CVLTHSPTWIIDPIDGTCNFVHR (UniProt O14732)”, the “probe-labelled cysteine peptide fold change” value (10 µM) came to 0.0622 and the “probe-labelled cysteine peptide fold change” value (50 µM) is -0.0767.
Take “IL6R_P08887_121_AGRPAGTVHLLVDVPPEEPQLSCFR (UniProt P08887)”: the “probe-labelled cysteine peptide fold change” value is, setting by setting: (10 µM) -0.172; (50 µM) 0.19.
For “IMPA1_P29218_8_ADPWQECMDYAVTLAR (UniProt P29218)” the same measures were -0.265 and -0.242.
In the same order, the values of “HYAL3_O43820_361_CHGHGR (UniProt O43820)” are 0.0116 and 0.112.
For IKBKG_Q9Y6K9_95_EFLMCK (UniProt Q9Y6K9) the same measures were -0.0456 and -0.0957.
For “IGHMBP2_P38935_395_CILAGDHK (UniProt P38935)”, the “probe-labelled cysteine peptide fold change” value is, setting by setting: (10 µM) 0.0395; (50 µM) 0.12.
Turning to “HUS1_O60921_200_IETELVCVTTHFK (UniProt O60921)”, the “probe-labelled cysteine peptide fold change” value turned out to be 0.0597 (10 µM) and 0.084 (50 µM).
Consider “IDH3G_P51553_148_TSLDLYANVIHCK (UniProt P51553)”, for which the “probe-labelled cysteine peptide fold change” value runs as follows: (10 µM) -0.0222; (50 µM) 0.0812.
In the same order, the values of “ILKAP_Q9H0C8_135_GEREEMQDAHVILNDITEECRPPSSLITR (UniProt Q9H0C8)” are -0.0165 and -0.168.
For “IFI35_P80217_74_IHCPLLAGSALITFDDPK (UniProt P80217)” the same measures were -0.23 and -0.0169.
In the same order, the values of “HTT_P42858_2792_VGALHGVLYVLECDLLDDTAK (UniProt P42858)” are -0.094 and -0.088.
For “IDH3A_P50213_222_EVAESCK (UniProt P50213)”, the “probe-labelled cysteine peptide fold change” value (10 µM) came to 0.0547 and the “probe-labelled cysteine peptide fold change” value (50 µM) worked out at 0.129.
For “IGF2R_P11717_1975_GCDVTFEWK (UniProt P11717)” the same measures were -0.0246 and 0.00792.
For the target “INPP5B_P32019_678_EFCFQNVK (UniProt P32019)”, the “probe-labelled cysteine peptide fold change” value is 0.151 (10 µM) and 0.141 (50 µM).
In the same order, the values of “ILF2_Q12905_311_VHTVMTLEQQDMVCYTAQTLVR (UniProt Q12905)” are 0.242 and -0.0569.
In the same order, the values of “INCENP_Q9NQS7_355_IICHSYLER (UniProt Q9NQS7)” are 0.0585 and -0.0175.
Consider “HUWE1_Q7Z6Z7_3361_ETNCESDRER (UniProt Q7Z6Z7)”, for which the “probe-labelled cysteine peptide fold change” value by setting is: (10 µM) -0.138; (50 µM) -0.153.
In the same order, the values of “INF2_Q27J81_38_LGPQDSDPTEANLESADPELCIR (UniProt Q27J81)” are -0.00116 and -0.0968.
On to “IGBP1_P78318_118_EHFINYLTQCHCYHVAEFELPK (UniProt P78318)”, for which the “probe-labelled cysteine peptide fold change” value runs as follows: (10 µM) 0.195; (50 µM) 0.284.
For “HYI_Q5T013_248_GFVGCEYQPR (UniProt Q5T013)” the same measures were 0.0282 and -0.0092.
In the case of “HUWE1_Q7Z6Z7_2666_VLDAESMHDCVSVVK (UniProt Q7Z6Z7)”, the “probe-labelled cysteine peptide fold change” value was -0.035 (10 µM) and -0.0406 (50 µM).
With “INF2_Q27J81_1029_CPASEPGLDATTASESR (UniProt Q27J81)”, the “probe-labelled cysteine peptide fold change” value was -0.107 (10 µM) and -0.146 (50 µM).
In the same order, the values of “HUS1_O60921_44_LNFILCDK (UniProt O60921)” are 0.0505 and -0.124.
With “IMPDH2_P12268_173_DIDFLKEEEHDCFLEEIMTK (UniProt P12268)”, the “probe-labelled cysteine peptide fold change” value runs as follows: (10 µM) -0.147; (50 µM) -0.0901.
For “IGF2R_P11717_1795_TSECDFVFEWETPVVCPDEVR (UniProt P11717)” the same measures were -0.233 and -0.0471.
In the same order, the values of “IGF2R_P11717_1042_FVCNDDVYSGPLK (UniProt P11717)” are 0.0448 and -0.0425.
With “IGSF8_Q969P0_127_LQAQDAGIYECHTPSTDTR (UniProt Q969P0)”, the “probe-labelled cysteine peptide fold change” value came to 0.106 (10 µM) and 0.0925 (50 µM).
Regarding “IGF2R_P11717_228_ACPPGTAACLVR (UniProt P11717)”, the “probe-labelled cysteine peptide fold change” value is 0.000279 (10 µM) and -0.0041 (50 µM).
In the same order, the values of “IGFBP7_Q16270_71_GEGEPCGGGGAGR (UniProt Q16270)” are -0.2 and -0.139.
Regarding “HUWE1_Q7Z6Z7_699_YICQKPSIQK (UniProt Q7Z6Z7)”, the “probe-labelled cysteine peptide fold change” value by setting is: (10 µM) -0.0652; (50 µM) -0.209.
As to “ICAM3_P32942_423_HVLQCQAR (UniProt P32942)”, the “probe-labelled cysteine peptide fold change” value came out at 0.00813 (10 µM) and 0.0916 (50 µM).
For “IDH3A_P50213_331_IEAACFATIK (UniProt P50213)” the same measures were 0.232 and 0.131.
In the same order, the values of “IMPA2_O14732_107_CVLTHSPTWIIDPIDGTCNFVHR (UniProt O14732)” are -0.106 and -0.116.
For “ILK_Q13418_239_DFNEECPR (UniProt Q13418)” the same measures were -0.132 and -0.0478.
Consider “IKBKG_Q9Y6K9_54_CLEENQELR (UniProt Q9Y6K9)”, for which the “probe-labelled cysteine peptide fold change” value was -0.00175 (10 µM) and -0.0833 (50 µM).
With “IKZF1_Q13422_71_ACEMNGEECAEDLR (UniProt Q13422)”, the “probe-labelled cysteine peptide fold change” value by setting is: (10 µM) -0.344; (50 µM) -0.414.
In the same order, the values of “ING2_Q9H160_26_LLTCYVQDYLECVESLPHDMQR (UniProt Q9H160)” are -0.475 and -0.164.
